Laboratory results reported in PubChem BioAssay AID1671190 (National Center for Advancing Translational Sciences (NCATS), 2021).
Values joined by “and” are separate entries in the source; they are usually repeats but may differ in a detail not shown here. Identical values can stand only once. The whole screen tested about 580,000 compounds, of which about 6,100 (1.1%) were called active. Inconclusive means that the source gave no clear call. Such entries were picked first, then a sample of the others. The call rests on the fitted dose curve; in most records, active means well fitted inhibition curve with a large enough effect; inconclusive means small, poorly fitted or top-dose-only effect, or another doubt; inactive means no such curve, though single readings can be large or run the other way. Where the call is inconclusive, the potency comes from a doubtful curve fit.

By UniProt entry, the sequences of proteins in these tests, tags left out. Where a name states a change or a piece, a line headed by the entry shows the natural chain unless it says otherwise.
UniProt P18054: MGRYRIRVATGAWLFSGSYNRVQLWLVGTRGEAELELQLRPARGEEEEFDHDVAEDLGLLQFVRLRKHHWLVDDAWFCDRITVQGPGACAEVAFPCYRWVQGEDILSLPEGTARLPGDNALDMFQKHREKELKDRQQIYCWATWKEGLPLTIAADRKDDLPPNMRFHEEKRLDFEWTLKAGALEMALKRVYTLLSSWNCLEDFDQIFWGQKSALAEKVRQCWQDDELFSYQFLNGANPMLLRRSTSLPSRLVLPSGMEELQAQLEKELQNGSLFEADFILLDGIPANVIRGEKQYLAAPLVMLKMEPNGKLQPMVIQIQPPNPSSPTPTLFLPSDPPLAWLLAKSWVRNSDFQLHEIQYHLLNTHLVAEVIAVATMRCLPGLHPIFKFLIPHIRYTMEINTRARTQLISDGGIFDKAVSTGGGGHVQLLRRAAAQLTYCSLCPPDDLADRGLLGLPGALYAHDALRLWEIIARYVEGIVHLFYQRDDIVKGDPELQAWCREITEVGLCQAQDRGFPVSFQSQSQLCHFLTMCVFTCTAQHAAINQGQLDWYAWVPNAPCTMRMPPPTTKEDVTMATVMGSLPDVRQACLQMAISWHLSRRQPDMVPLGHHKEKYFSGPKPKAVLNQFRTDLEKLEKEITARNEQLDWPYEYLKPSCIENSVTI

What follows are compounds tested against Polyunsaturated fatty acid lipoxygenase ALOX12 (Homo sapiens) (UniProt P18054) (assay: Primary qHTS assay for inhibitors of human arachidonate 12S-lipoxygenase (ALOX12): Round 2). Details: purified 12hLO, xylenol orange hydroperoxide absorbance; activity change, negative = inhibition: at 108 µM (top of the series) unless noted.
Outline: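 Hydroperoxide product was detected by ferrous iron/xylenol orange as the 573 to 405 nm absorbance ratio. Arachidonic acid at 40 uM (final) was turned over for 30 min at room temperature by 150 nM human 12hLO, pH 7.0 Hepes buffer, after 15 min compound preincubation.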
On the % scale 0 is the no-effect control and ±100 the full control effect; potency means the concentration at half of the fitted maximal effect.

Row | Structure (SMILES) | activity change, negative = inhibition | Potency
1 | COc1ccc(S(=O)(=O)c2cc3ccc(OC)cc3oc2=O)cc1 | inactive: -12.5% | 
2 | Nc1nnc(SC2CCCC2)s1 | inactive: -8.49% | 
3 | CCOC(=O)c1ccc2c(c1)n(CC)c(/C=C/Nc1ccccc1)[n+]2CC |  | inconclusive: 5.62 µM [inhibitor, full curve, poor fit]
4 | O=C1c2ccccc2C(c2nc3ccccc3[nH]2)N1c1ccccc1 (stereo unspecified) |  | inconclusive: 89.1 µM [inhibitor, partial curve, poor fit]
5 | C[C@H]1CN([C@@H](C)CO)S(=O)(=O)c2ccc(C#CC3CC3)cc2O[C@@H]1CN(C)S(C)(=O)=O |  | inconclusive: 100 µM [inhibitor, single point]
6 | CCOC(=O)C1CCN(Cc2cc(=O)oc3cc(C)c(Cl)cc23)CC1 |  | inactive and inconclusive: 7.08 µM [inhibitor, full curve, poor fit]
7 | CCn1cc(C(=O)O)c(=O)c2cc(F)c(N3CCNCC3)cc21 | inactive: -11.2% [at 22.9 µM] | inconclusive: 15.3 µM [inhibitor, single point]
8 | Cc1cnc(C(=O)Oc2ccc(Cl)cc2Cl)cn1 |  | inconclusive: 1.78 µM [inhibitor, full curve]
9 | COc1ccc(S(=O)(=O)N(C)C)cc1NC(=O)c1n[nH]c(=O)c2ccccc12 |  | inconclusive: 56.2 µM [inhibitor, full curve, poor fit]
10 | CCCN1C(=O)C(CC(=O)N2CCCC(C)C2)Sc2ncccc21 (stereo unspecified) | inactive: 12% | 
11 | CC1=C(C(=O)N2CCOCC2)CC(CC(=O)NC2CCCCC2)C(=O)N1Cc1ccc(C(C)(C)C)cc1 (stereo unspecified) | inactive: 0% | 
12 | COc1ccc(NC(=O)N2c3ccc(OC)cc3[C@@H](NC(C)=O)[C@H](C)[C@H]2c2ccccc2)cc1 |  | inconclusive: 100 µM [inhibitor, single point]
13 | CCOC(=O)CC1(Cc2ccccc2)Oc2ccccc2O1 | inactive: 6.24% | 
14 | Cc1ccc2c(c1)c(CC(=O)Nc1ccc(F)cc1)c(C(=O)O)n2C |  | inconclusive: 39.8 µM [inhibitor, partial curve, poor fit]
15 | COc1cccc(CNC(=O)[C@@H]2CCCN2C(=O)[C@H]2CCCCN2C(=O)c2cccs2)c1 |  | inconclusive: 141 µM [inhibitor, single point]
16 | COc1ccc(CN=C(C#N)C2=C(O)c3ccccc3C2=O)cc1 |  | inconclusive: 3.16 µM [inhibitor, full curve, poor fit]
17 | Cc1ccc(C(=O)/C=C/c2ccc(F)c(Br)c2)o1 |  | inconclusive: 35.5 µM [inhibitor, partial curve, poor fit]
18 | COc1ncc2nc(C)c(=O)n(-c3ccccc3)c2n1 |  | inconclusive: 89.1 µM [inhibitor, single point]
19 | COc1ccccc1Cc1c(-c2ccc(C)cc2)nc2ccc(Br)cn12 | inactive: -26.4% | 
20 | COc1cccc(C(=O)N2CCCCC2c2nc(-c3cnccn3)n[nH]2)c1 (stereo unspecified) | inactive: 37.7% | 
21 | CCc1nc2c(OCc3cccc(Cl)c3)cccn2c1N(C)C(=O)c1ccc(OC)cc1 |  | inconclusive: 50.1 µM [inhibitor, partial curve, poor fit]
22 | COc1ccc(C(=O)NC(=S)NC(C)(C)C)cc1Br |  | active: 8.91 µM
23 | CCOC(=O)c1c(C)[nH]c(N=Nc2ccccc2Cl)c1C | inactive: -1.26% | 
24 | COc1cccc(CNC(=O)COC(=O)c2ccc(N3CCCC3=O)cc2)c1 | inactive: -0.399% | 

Row | Structure (SMILES) | activity change, negative = inhibition | Potency
25 | Cc1cnc(C(=O)Oc2ccc(-c3ccccc3)cc2)cn1 | inactive: 12.1% | 
26 | O=C(Nc1ccc2c(c1)OC1(CCCC1)O2)C1CC1 | inactive: 9.67% | 
27 | COc1ccc(-c2nn(-c3ccccc3)cc2C2NC(=O)NC(C)=C2C(=O)OC(C)C)cc1Cl (stereo unspecified) |  | inconclusive: 56.2 µM [inhibitor, partial curve, poor fit]
28 | O=C(c1ccco1)N(CCCN1CCOCC1)c1nc(-c2ccc(Cl)cc2)cs1 | inactive: -16.7% | 
29 | N[C@@H](C(=O)O)c1ccc(O)c(C(=O)O)c1 |  | inconclusive: 1.12 µM [inhibitor, full curve, poor fit]
30 | CCOC(=S)SCc1cn2ccc(C)cc2n1 | inactive: -19.2% | 
31 | O=Cc1cc(Cc2ccccc2Cl)ccc1O |  | inconclusive: 35.5 µM [inhibitor, partial curve, poor fit]
32 | Cn1c(=O)c(=O)n(C)c2cc(N3CCOCC3)c(NS(=O)(=O)c3ccc(Br)cc3)cc21 |  | inconclusive: 50.1 µM [inhibitor, partial curve, poor fit]
33 | O=S(=O)(NCC(c1ccco1)S(=O)(=O)c1cccs1)c1ccc(Cl)cc1 (stereo unspecified) | inactive: -7.41% | 
34 | COc1ccc(C(=O)CC2(C(=O)O)CCCCC2)cc1 |  | inconclusive: 70.8 µM [inhibitor, partial curve, poor fit]
35 | O=C(NC(=O)c1c(F)cccc1F)O/N=C1\CCCc2occc21 | inactive: 0% | 
36 | CCCn1c(=N)n(CC(=O)C(C)(C)C)c2ccccc21 |  | inconclusive: 50.1 µM [inhibitor, partial curve, poor fit]
37 | CN(Cc1ccccc1C(F)(F)F)Cc1ccnn1C | inactive: 46.5% [at 176 µM] | 
38 | O=C(CS(=O)(=O)Cc1ccccc1)Nc1ccc(F)cc1 |  | inconclusive: 112 µM [inhibitor, partial curve, poor fit]
39 | CC(C)(C)c1cc(CN2CCN(CCO)CC2)cc(C(C)(C)C)c1O |  | inconclusive: 22.4 µM [inhibitor, partial curve]
40 | CC(=O)c1ccc(N2CCN(C(C(=O)O)c3c[nH]c4ccc(OCc5ccccc5)cc34)CC2)cc1 (stereo unspecified) |  | inconclusive: 22.4 µM [inhibitor, partial curve, poor fit]
41 | CNC(=O)CCc1cn(Cc2ccccc2C)c2ccccc12 | inactive: 5.53% | 
42 | COc1cccc(CN2CCN(C(=O)c3cc(-c4ccccn4)nc4ccc(Cl)cc34)CC2)c1 | inactive: 0% | 
43 | COc1cccc(C(=O)Nc2nc(-c3ccc4c(c3)OCO4)cs2)c1 | inactive: -20.5% | 
44 | CC(=O)c1ccc(-n2c(-c3cc(-c4ccsc4)n[nH]3)n[nH]c2=S)cc1 |  | inconclusive: 39.8 µM [inhibitor, partial curve]
45 | Cc1cc(/C=C2\SC(=S)N(C)C2=O)c(C)n1-c1ccc(O)cc1 |  | inconclusive: 35.5 µM [inhibitor, partial curve, poor fit]
46 | Cc1ccc(-c2nnn(CC(=O)N(C)Cc3ccc(Cl)s3)n2)cc1 |  | inconclusive: 28.2 µM [inhibitor, single point]
47 | Cc1ccc(CSCCC(=O)NCc2ccc(F)cc2Cl)cc1 |  | inconclusive: 89.1 µM [inhibitor, partial curve, poor fit]
48 | CC(=O)c1cccc(NS(=O)(=O)c2cc(-c3cnc(C4CC4)o3)ccc2C)c1 |  | inactive

Row | Structure (SMILES) | activity change, negative = inhibition | Potency
49 | C=C(C)C1Cc2nc(N)nc(C)c2C1 (stereo unspecified) | inactive: -0.873% | 
50 | Cc1ccc(C(=O)OCC(=O)NCc2ccco2)cc1S(=O)(=O)Nc1cccc(Cl)c1 |  | inconclusive: 79.4 µM [inhibitor, partial curve, poor fit]
51 | N=C1/C(=C/c2cccn2CCOc2ccccc2)C(=O)N=C2SC=C(c3ccccc3)N12 |  | inconclusive: 112 µM [inhibitor, partial curve, poor fit]
52 | O=C(NC1CCN(S(=O)(=O)c2cccc(F)c2F)CC1)C1CC1 | inactive: -9.74% | 
53 | COc1ccc(NS(=O)(=O)c2cc(NC(=O)c3cccnc3Cl)ccc2N2CCCC2)cc1 |  | inconclusive: 7.94 µM [inhibitor, partial curve, poor fit]
54 | CCOc1cc(/C=C/c2ccc3cccc(OC(C)=O)c3n2)ccc1OC(C)=O |  | inconclusive: 31.6 µM [inhibitor, partial curve, poor fit]
55 | Cc1nc2ccc(N3C(=O)CCC3=O)cc2[nH]1 |  | inconclusive: 25.1 µM [inhibitor, partial curve, poor fit]
56 | CN(C)S(=O)(=O)N1CCN(c2ccc([N+](=O)[O-])c(N3CCOCC3)c2)CC1 |  | inconclusive: 89.1 µM [inhibitor, single point]
57 | O=C(CSc1nc2cc(C(F)(F)F)ccc2s1)c1ccc2c(c1)CCCC2 | inactive: -5.98% | 
58 | O=C(O)CNC(=O)CC(F)(F)F | inactive: -0.102% | 
59 | CCN1CCN(C(c2ccccc2)c2sc3nc(C)nn3c2O)CC1 (stereo unspecified) | inactive: 21.5% | 
60 | CC(=NNC(=S)Nc1ccc(C)cc1)c1ccccn1 |  | inconclusive: 79.4 µM [inhibitor, partial curve, poor fit]
61 | FC(F)(F)c1cc(-c2cccs2)nc2sc3ccccc3c12 | inactive: -5.62% | 
62 | Cc1ccc(C)c(NC(=O)C2CCCC2)c1 |  | inconclusive: 126 µM [inhibitor, single point]
63 | COC(=O)c1c(NC(=O)Cc2coc3ccc(C(C)C)cc23)sc2c1CCC2 |  | inconclusive: 126 µM [inhibitor, partial curve, poor fit]
64 | N#CC1=C(S)N=C(N)C(c2nc(-c3ccccc3)cs2)C12CCCC2 (stereo unspecified) |  | inconclusive: 6.31 µM [inhibitor, partial curve, poor fit]
65 | CC(C)=CCn1c2ccc(NC(=O)NCc3ccc(F)cc3)cc2c(=O)n1C |  | inconclusive: 39.8 µM [inhibitor, partial curve, poor fit]
66 | CC(=O)c1cccc(NC(=O)CCCN(c2cccc(Cl)c2)S(C)(=O)=O)c1 |  | inconclusive: 28.2 µM [inhibitor, partial curve, poor fit]
67 | Cc1c(Cl)c(C(F)(F)F)nn1CC(=O)Nc1ccc(F)cc1F | inactive: -1.73% | 
68 | CCc1c(C(=O)Nc2ccc(OC)cc2OC)csc1C | inactive: 41.1% | 
69 | CC(=O)N1CCC2(CC1)CC(=O)c1ccc(OCC(=O)NC3Cc4ccccc4C3)cc1O2 | inactive: 13.3% | 
70 | Cc1cc(C(=O)CN2C(=O)CN(C)C2=O)c(C)n1-c1cccc(S(=O)(=O)N2CCOCC2)c1 |  | inconclusive: 141 µM [inhibitor, partial curve, poor fit]
